Measurements from article PMC10371797.
No constants are given. Whether binding was seen depends on the method and setting. In cells and extracts the contact can be indirect. Some results given as binding are weak or reduced against the parent protein; the word gives no strength. Tags and fused reporters may be left off the sequences shown.

How the values were obtained:
Assay in all cases: co-IP
[1] = molecular target: T1, PABPN1-Flag (UniProt Q86U42)
T1 sequence: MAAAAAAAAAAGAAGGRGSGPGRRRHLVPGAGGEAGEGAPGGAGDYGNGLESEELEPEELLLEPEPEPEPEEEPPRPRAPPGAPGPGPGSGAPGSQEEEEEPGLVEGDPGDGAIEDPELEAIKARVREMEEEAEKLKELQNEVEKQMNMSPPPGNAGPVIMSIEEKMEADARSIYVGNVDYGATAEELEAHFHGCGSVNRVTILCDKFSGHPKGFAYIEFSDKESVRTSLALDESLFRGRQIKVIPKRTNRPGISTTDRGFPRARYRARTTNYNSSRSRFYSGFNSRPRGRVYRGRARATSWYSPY

[2] = molecular target: T2, ZC3H11A(3C>A)-Flag (human) (UniProt O75152)
T2 sequence: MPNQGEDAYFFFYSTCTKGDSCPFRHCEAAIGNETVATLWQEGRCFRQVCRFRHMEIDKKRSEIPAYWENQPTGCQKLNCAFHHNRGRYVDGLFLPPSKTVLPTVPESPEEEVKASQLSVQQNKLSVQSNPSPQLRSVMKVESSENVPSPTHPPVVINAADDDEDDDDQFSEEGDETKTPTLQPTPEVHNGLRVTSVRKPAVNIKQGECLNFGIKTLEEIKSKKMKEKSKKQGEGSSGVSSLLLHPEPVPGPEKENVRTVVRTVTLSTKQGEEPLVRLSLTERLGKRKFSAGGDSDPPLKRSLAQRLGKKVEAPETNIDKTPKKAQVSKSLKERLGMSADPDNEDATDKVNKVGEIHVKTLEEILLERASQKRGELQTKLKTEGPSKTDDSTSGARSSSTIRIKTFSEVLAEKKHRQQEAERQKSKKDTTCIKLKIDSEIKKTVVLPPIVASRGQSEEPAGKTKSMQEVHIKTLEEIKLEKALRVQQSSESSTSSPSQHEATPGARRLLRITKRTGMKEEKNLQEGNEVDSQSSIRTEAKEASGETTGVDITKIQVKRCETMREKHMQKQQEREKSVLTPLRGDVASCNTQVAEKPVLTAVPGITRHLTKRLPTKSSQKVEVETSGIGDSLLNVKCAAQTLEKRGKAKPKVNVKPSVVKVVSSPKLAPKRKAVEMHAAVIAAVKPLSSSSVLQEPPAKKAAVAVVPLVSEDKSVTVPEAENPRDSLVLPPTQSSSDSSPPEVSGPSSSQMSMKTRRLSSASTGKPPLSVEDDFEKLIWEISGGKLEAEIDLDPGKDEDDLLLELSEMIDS

[3] = molecular target: ZC3H11A(wt)-Flag (human) (UniProt O75152)

Row | binding [1] | binding [2] | binding [3] | Binder
1 | binds | – | – | ZC3H11A(C37A)-HA (protein, UniProt O75152 1-810) MPNQGEDCYFFFYSTCTKGDSCPFRHCEAAIGNETVATLWQEGRCFRQVCRFRHMEIDKKRSEIPCYWENQPTGCQKLNCAFHHNRGRYVDGLFLPPSKTVLPTVPESPEEEVKASQLSVQQNKLSVQSNPSPQLRSVMKVESSENVPSPTHPPVVINAADDDEDDDDQFSEEGDETKTPTLQPTPEVHNGLRVTSVRKPAVNIKQGECLNFGIKTLEEIKSKKMKEKSKKQGEGSSGVSSLLLHPEPVPGPEKENVRTVVRTVTLSTKQGEEPLVRLSLTERLGKRKFSAGGDSDPPLKRSLAQRLGKKVEAPETNIDKTPKKAQVSKSLKERLGMSADPDNEDATDKVNKVGEIHVKTLEEILLERASQKRGELQTKLKTEGPSKTDDSTSGARSSSTIRIKTFSEVLAEKKHRQQEAERQKSKKDTTCIKLKIDSEIKKTVVLPPIVASRGQSEEPAGKTKSMQEVHIKTLEEIKLEKALRVQQSSESSTSSPSQHEATPGARRLLRITKRTGMKEEKNLQEGNEVDSQSSIRTEAKEASGETTGVDITKIQVKRCETMREKHMQKQQEREKSVLTPLRGDVASCNTQVAEKPVLTAVPGITRHLTKRLPTKSSQKVEVETSGIGDSLLNVKCAAQTLEKRGKAKPKVNVKPSVVKVVSSPKLAPKRKAVEMHAAVIAAVKPLSSSSVLQEPPAKKAAVAVVPLVSEDKSVTVPEAENPRDSLVLPPTQSSSDSSPPEVSGPSSSQMSMKTRRLSSASTGKPPLSVEDDFEKLIWEISGGKLEAEIDLDPGKDEDDLLLELSEMIDS
2 | no binding | – | – | ZC3H11A(3C>A)-HA (protein, UniProt O75152 1-810) MPNQGEDAYFFFYSTCTKGDSCPFRHCEAAIGNETVATLWQEGRCFRQVCRFRHMEIDKKRSEIPAYWENQPTGCQKLNCAFHHNRGRYVDGLFLPPSKTVLPTVPESPEEEVKASQLSVQQNKLSVQSNPSPQLRSVMKVESSENVPSPTHPPVVINAADDDEDDDDQFSEEGDETKTPTLQPTPEVHNGLRVTSVRKPAVNIKQGECLNFGIKTLEEIKSKKMKEKSKKQGEGSSGVSSLLLHPEPVPGPEKENVRTVVRTVTLSTKQGEEPLVRLSLTERLGKRKFSAGGDSDPPLKRSLAQRLGKKVEAPETNIDKTPKKAQVSKSLKERLGMSADPDNEDATDKVNKVGEIHVKTLEEILLERASQKRGELQTKLKTEGPSKTDDSTSGARSSSTIRIKTFSEVLAEKKHRQQEAERQKSKKDTTCIKLKIDSEIKKTVVLPPIVASRGQSEEPAGKTKSMQEVHIKTLEEIKLEKALRVQQSSESSTSSPSQHEATPGARRLLRITKRTGMKEEKNLQEGNEVDSQSSIRTEAKEASGETTGVDITKIQVKRCETMREKHMQKQQEREKSVLTPLRGDVASCNTQVAEKPVLTAVPGITRHLTKRLPTKSSQKVEVETSGIGDSLLNVKCAAQTLEKRGKAKPKVNVKPSVVKVVSSPKLAPKRKAVEMHAAVIAAVKPLSSSSVLQEPPAKKAAVAVVPLVSEDKSVTVPEAENPRDSLVLPPTQSSSDSSPPEVSGPSSSQMSMKTRRLSSASTGKPPLSVEDDFEKLIWEISGGKLEAEIDLDPGKDEDDLLLELSEMIDS
3 | no binding | – | – | ZC3H11A(C66A)-HA (protein, UniProt O75152 1-810) MPNQGEDCYFFFYSTCTKGDSCPFRHCEAAIGNETVCTLWQEGRCFRQVCRFRHMEIDKKRSEIPAYWENQPTGCQKLNCAFHHNRGRYVDGLFLPPSKTVLPTVPESPEEEVKASQLSVQQNKLSVQSNPSPQLRSVMKVESSENVPSPTHPPVVINAADDDEDDDDQFSEEGDETKTPTLQPTPEVHNGLRVTSVRKPAVNIKQGECLNFGIKTLEEIKSKKMKEKSKKQGEGSSGVSSLLLHPEPVPGPEKENVRTVVRTVTLSTKQGEEPLVRLSLTERLGKRKFSAGGDSDPPLKRSLAQRLGKKVEAPETNIDKTPKKAQVSKSLKERLGMSADPDNEDATDKVNKVGEIHVKTLEEILLERASQKRGELQTKLKTEGPSKTDDSTSGARSSSTIRIKTFSEVLAEKKHRQQEAERQKSKKDTTCIKLKIDSEIKKTVVLPPIVASRGQSEEPAGKTKSMQEVHIKTLEEIKLEKALRVQQSSESSTSSPSQHEATPGARRLLRITKRTGMKEEKNLQEGNEVDSQSSIRTEAKEASGETTGVDITKIQVKRCETMREKHMQKQQEREKSVLTPLRGDVASCNTQVAEKPVLTAVPGITRHLTKRLPTKSSQKVEVETSGIGDSLLNVKCAAQTLEKRGKAKPKVNVKPSVVKVVSSPKLAPKRKAVEMHAAVIAAVKPLSSSSVLQEPPAKKAAVAVVPLVSEDKSVTVPEAENPRDSLVLPPTQSSSDSSPPEVSGPSSSQMSMKTRRLSSASTGKPPLSVEDDFEKLIWEISGGKLEAEIDLDPGKDEDDLLLELSEMIDS

Further lines, the binder ahead of its results:

Row | Binder | binding [1] | binding [2] | binding [3]
4 | THOC1-HA (protein, UniProt Q96FV9 1-657) MSPTPPLFSLPEARTRFTKSTREALNNKNIKPLLSTFSQVPGSENEKKCTLDQAFRGILEEEIINHSSCENVLAIISLAIGGVTEGICTASTPFVLLGDVLDCLPLDQCDTIFTFVEKNVATWKSNTFYSAGKNYLLRMCNDLLRRLSKSQNTVFCGRIQLFLARLFPLSEKSGLNLQSQFNLENVTVFNTNEQESTLGQKHTEDREEGMDVEEGEMGDEEAPTTCSIPIDYNLYRKFWSLQDYFRNPVQCYEKISWKTFLKYSEEVLAVFKSYKLDDTQASRKKMEELKTGGEHVYFAKFLTSEKLMDLQLSDSNFRRHILLQYLILFQYLKGQVKFKSSNYVLTDEQSLWIEDTTKSVYQLLSENPPDGERFSKMVEHILNTEENWNSWKNEGCPSFVKERTSDTKPTRIIRKRTAPEDFLGKGPTKKILMGNEELTRLWNLCPDNMEACKSETREHMPTLEEFFEEAIEQADPENMVENEYKAVNNSNYGWRALRLLARRSPHFFQPTNQQFKSLPEYLENMVIKLAKELPPPSEEIKTGEDEDEEDNDALLKENESPDVRRDKPVTGEQIEVFANKLGEQWKILAPYLEMKDSEIRQIECDSEDMKMRAKQLLVAWQDQEGVHATPENLINALNKSGLSDLAESLTNDNETNS | – | binds | binds
5 | ZC3H11A(dZF)-HA (domain or fragment, UniProt O75152 87-810) GRYVDGLFLPPSKTVLPTVPESPEEEVKASQLSVQQNKLSVQSNPSPQLRSVMKVESSENVPSPTHPPVVINAADDDEDDDDQFSEEGDETKTPTLQPTPEVHNGLRVTSVRKPAVNIKQGECLNFGIKTLEEIKSKKMKEKSKKQGEGSSGVSSLLLHPEPVPGPEKENVRTVVRTVTLSTKQGEEPLVRLSLTERLGKRKFSAGGDSDPPLKRSLAQRLGKKVEAPETNIDKTPKKAQVSKSLKERLGMSADPDNEDATDKVNKVGEIHVKTLEEILLERASQKRGELQTKLKTEGPSKTDDSTSGARSSSTIRIKTFSEVLAEKKHRQQEAERQKSKKDTTCIKLKIDSEIKKTVVLPPIVASRGQSEEPAGKTKSMQEVHIKTLEEIKLEKALRVQQSSESSTSSPSQHEATPGARRLLRITKRTGMKEEKNLQEGNEVDSQSSIRTEAKEASGETTGVDITKIQVKRCETMREKHMQKQQEREKSVLTPLRGDVASCNTQVAEKPVLTAVPGITRHLTKRLPTKSSQKVEVETSGIGDSLLNVKCAAQTLEKRGKAKPKVNVKPSVVKVVSSPKLAPKRKAVEMHAAVIAAVKPLSSSSVLQEPPAKKAAVAVVPLVSEDKSVTVPEAENPRDSLVLPPTQSSSDSSPPEVSGPSSSQMSMKTRRLSSASTGKPPLSVEDDFEKLIWEISGGKLEAEIDLDPGKDEDDLLLELSEMIDS | no binding | – | –
6 | ZC3H11A(C8A)-HA (protein, UniProt O75152 1-810) MPNQGEDAYFFFYSTCTKGDSCPFRHCEAAIGNETVCTLWQEGRCFRQVCRFRHMEIDKKRSEIPCYWENQPTGCQKLNCAFHHNRGRYVDGLFLPPSKTVLPTVPESPEEEVKASQLSVQQNKLSVQSNPSPQLRSVMKVESSENVPSPTHPPVVINAADDDEDDDDQFSEEGDETKTPTLQPTPEVHNGLRVTSVRKPAVNIKQGECLNFGIKTLEEIKSKKMKEKSKKQGEGSSGVSSLLLHPEPVPGPEKENVRTVVRTVTLSTKQGEEPLVRLSLTERLGKRKFSAGGDSDPPLKRSLAQRLGKKVEAPETNIDKTPKKAQVSKSLKERLGMSADPDNEDATDKVNKVGEIHVKTLEEILLERASQKRGELQTKLKTEGPSKTDDSTSGARSSSTIRIKTFSEVLAEKKHRQQEAERQKSKKDTTCIKLKIDSEIKKTVVLPPIVASRGQSEEPAGKTKSMQEVHIKTLEEIKLEKALRVQQSSESSTSSPSQHEATPGARRLLRITKRTGMKEEKNLQEGNEVDSQSSIRTEAKEASGETTGVDITKIQVKRCETMREKHMQKQQEREKSVLTPLRGDVASCNTQVAEKPVLTAVPGITRHLTKRLPTKSSQKVEVETSGIGDSLLNVKCAAQTLEKRGKAKPKVNVKPSVVKVVSSPKLAPKRKAVEMHAAVIAAVKPLSSSSVLQEPPAKKAAVAVVPLVSEDKSVTVPEAENPRDSLVLPPTQSSSDSSPPEVSGPSSSQMSMKTRRLSSASTGKPPLSVEDDFEKLIWEISGGKLEAEIDLDPGKDEDDLLLELSEMIDS | no binding | – | –
